Test results published in the supplement of paper PMC11546906.
Where a name gives a salt, the structure may show the parent alone. The list shows a part of the results. Single values are uncertain here, since repeats match poorly.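 Screen of FDA-approved drugs, each combined with colistin at one-eighth of its MIC, against a multidrug-resistant mcr-1-positive clinical E. coli isolate; growth read as OD600 after 24 h. Bacteria without drug were the growth control and plain broth the blank. A combination counted as active when OD600 fell below 0.2.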

Each molecule was assayed on Escherichia coli 42 (mcr-1-positive clinical isolate) (assay: OD600 after 24 h growth with compound plus colistin (absorbance units (OD600)); higher = more bacterial growth (less inhibition)). Conditions: first compound 25 µM; colistin concentration 0.5 ug/mL; incubation time 24 h; 37 °C.

OD600, inactive:
COc1cc(N)c(Cl)cc1C(=O)NC1CCN(CCCOc2ccc(F)cc2)CC1OC (centres undefined) [Cisapride] + CCC(C)CCCC(=O)N[C@@H](CCN)C(=O)N[C@H](C(=O)N[C@@H](CCN)C(=O)N[C@H]1CCNC(=O)[C@H]([C@@H](C)O)NC(=O)[C@H](CCN)NC(=O)[C@H](CCN)NC(=O)[C@H](CC(C)C)NC(=O)[C@@H](CC(C)C)NC(=O)[C@H](CCN)NC1=O)[C@@H](C)O [colistin] 1.07
Cn1cnc2c(F)c(Nc3ccc(Br)cc3Cl)c(C(=O)NOCCO)cc21 [Selumetinib] + CCC(C)CCCC(=O)N[C@@H](CCN)C(=O)N[C@H](C(=O)N[C@@H](CCN)C(=O)N[C@H]1CCNC(=O)[C@H]([C@@H](C)O)NC(=O)[C@H](CCN)NC(=O)[C@H](CCN)NC(=O)[C@H](CC(C)C)NC(=O)[C@@H](CC(C)C)NC(=O)[C@H](CCN)NC1=O)[C@@H](C)O [colistin] 0.782
CC(COc1ccccc1)N(CCCl)Cc1ccccc1 (centres undefined) [Phenoxybenzamine hydrochloride] + CCC(C)CCCC(=O)N[C@@H](CCN)C(=O)N[C@H](C(=O)N[C@@H](CCN)C(=O)N[C@H]1CCNC(=O)[C@H]([C@@H](C)O)NC(=O)[C@H](CCN)NC(=O)[C@H](CCN)NC(=O)[C@H](CC(C)C)NC(=O)[C@@H](CC(C)C)NC(=O)[C@H](CCN)NC1=O)[C@@H](C)O [colistin] 0.977
O=C1[C@H](CC[C@H](O)c2ccc(F)cc2)[C@@H](c2ccc(O)cc2)N1c1ccc(F)cc1 [Ezetimibe] + CCC(C)CCCC(=O)N[C@@H](CCN)C(=O)N[C@H](C(=O)N[C@@H](CCN)C(=O)N[C@H]1CCNC(=O)[C@H]([C@@H](C)O)NC(=O)[C@H](CCN)NC(=O)[C@H](CCN)NC(=O)[C@H](CC(C)C)NC(=O)[C@@H](CC(C)C)NC(=O)[C@H](CCN)NC1=O)[C@@H](C)O [colistin] 0.79
